The experiment has as its target T1, RSP3 (AKAP97), endogenous in axonemes (Chlamydomonas reinhardtii (endogenous in axonemes)) (UniProt P12759).
T1 sequence: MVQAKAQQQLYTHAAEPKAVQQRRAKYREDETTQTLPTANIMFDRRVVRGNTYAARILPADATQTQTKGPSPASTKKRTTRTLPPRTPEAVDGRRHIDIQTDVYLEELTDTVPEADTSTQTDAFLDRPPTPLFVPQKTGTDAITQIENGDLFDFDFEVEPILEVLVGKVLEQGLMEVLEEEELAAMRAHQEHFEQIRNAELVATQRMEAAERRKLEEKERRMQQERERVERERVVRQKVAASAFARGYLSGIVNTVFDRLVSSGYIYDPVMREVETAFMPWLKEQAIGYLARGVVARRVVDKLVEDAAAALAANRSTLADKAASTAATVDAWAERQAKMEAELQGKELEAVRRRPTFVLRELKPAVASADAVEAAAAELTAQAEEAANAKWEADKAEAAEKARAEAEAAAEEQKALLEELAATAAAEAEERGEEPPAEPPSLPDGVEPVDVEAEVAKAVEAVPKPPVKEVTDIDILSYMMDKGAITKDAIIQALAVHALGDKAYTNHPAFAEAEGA
Nature of the experiment: far-Western, overlay or dot blot; axonemes of WT and mutants (pf14, pf15, pf18, pf19, pf20) on SDS-PAGE, blotted on nitrocellulose, overlaid with ~20 μg/ml purified 6His-FAP174 or 6His-RIIa D/D; detected with HRP-conjugated anti-His antibody; only the binder purified.

Protein sequences, listed by entry. Tags and fused reporters are not part of them. Residues count along the entry.
UniProt P12368, residues 1-44: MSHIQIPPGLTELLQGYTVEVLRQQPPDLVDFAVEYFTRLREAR

These are yes or no findings as the source states them, for the method shown. Some binding calls cover weakened binding; strength is not graded here.

Regarding “6His-tagged RIIa D/D (regulatory subunit RIIa of PKA, dimerization and docking domain, 1–44) (from UniProt P12368 1-44) (domain or fragment)”, the binding result is recorded as “binds”.

The record behind these values is paper PMC4901443.
